Data on three substances can be found in paper PMC10014099.

Assay [1] has as its target T1, Flag-Plek2 (UniProt Q9WV52).
T1 sequence: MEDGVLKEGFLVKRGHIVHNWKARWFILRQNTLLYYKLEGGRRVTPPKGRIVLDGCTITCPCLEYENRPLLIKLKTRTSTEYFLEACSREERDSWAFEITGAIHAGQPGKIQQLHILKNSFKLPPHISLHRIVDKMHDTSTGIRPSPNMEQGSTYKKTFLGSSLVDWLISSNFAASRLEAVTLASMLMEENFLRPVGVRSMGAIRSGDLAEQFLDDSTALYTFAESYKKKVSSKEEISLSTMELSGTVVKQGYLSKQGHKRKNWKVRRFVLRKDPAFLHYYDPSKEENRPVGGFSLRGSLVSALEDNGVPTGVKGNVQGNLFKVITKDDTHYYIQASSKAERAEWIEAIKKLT
Briefly: co-IP; IP with anti-FLAG magnetic beads from lysate of 293T cells transfected with Flag-Plek2, Western blot; also after 20 uM NUP-17d for 2 hours.

Assay [2] concerns the target T2, HA-Plek2 (pleckstrin-2) (UniProt Q9WV52).
T2 sequence: T1 sequence
Briefly: co-IP; IP with anti-HA magnetic beads from lysate of 293T cells transfected with HA-Plek2, Western blot.

Assay [3] concerns the target T3, GST-Plek2 (UniProt Q9WV52).
T3 sequence: T1 sequence
The assay is described as follows: pull-down; GST pull-down of GST-Plek2 or GST-DEP with purified His-AKT, Akt detected by Western blot; also with or without 500 uM NUP-17d; both purified. On the technique in general: Immunoblotting shows a protein as a band on a membrane.

The target in assay [4] is T4, GST-Plek2 DEP domain (UniProt Q9WV52).
T4 sequence: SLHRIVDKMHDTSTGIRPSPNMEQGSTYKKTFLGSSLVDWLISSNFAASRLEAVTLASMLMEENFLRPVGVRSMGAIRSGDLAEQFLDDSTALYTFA
The assay is described as above.

Assay [5] has as its target T3, GST-Plek2. Briefly: pull-down; GST pull-down of GST-Plek2 incubated with lysate of 293T cells, Western blot; only the target purified.

No constants are given. Whether binding was seen depends on the method and setting. Binding calls can cover weak binding; strength is not graded here. Where a sequence is shown, tags or fusion partners need not be part of it. For some assays here: Binding seen in cells or lysates may run through a third protein.

As to Akt (human (endogenous in 293T)), the binding entry in assay [1] and in assay [2] was “binds” throughout.
Turning to His-AKT, the binding result in assay [3] and in assay [4] was “binds” in each case.
On to PDK2 (human (endogenous in 293T)), for which, in assay [5], the binding result is “binds”.
